In the supplement of paper PMC10849652:
This is one part of the list.

Protein sequences, listed by entry. Tags and fused reporters are not part of them. Lines headed by an entry give the natural chain unless they say otherwise; changes in a name come on top.
UniProt P00480: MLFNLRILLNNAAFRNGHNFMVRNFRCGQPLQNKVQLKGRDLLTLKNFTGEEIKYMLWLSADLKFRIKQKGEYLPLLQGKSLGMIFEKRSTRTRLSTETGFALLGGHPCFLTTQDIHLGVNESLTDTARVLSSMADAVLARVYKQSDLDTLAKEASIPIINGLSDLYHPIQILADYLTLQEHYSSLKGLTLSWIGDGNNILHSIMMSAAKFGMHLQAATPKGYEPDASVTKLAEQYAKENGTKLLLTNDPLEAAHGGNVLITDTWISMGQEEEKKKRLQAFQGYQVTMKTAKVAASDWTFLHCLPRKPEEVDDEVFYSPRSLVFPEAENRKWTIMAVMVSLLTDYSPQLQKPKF
UniProt Q15102: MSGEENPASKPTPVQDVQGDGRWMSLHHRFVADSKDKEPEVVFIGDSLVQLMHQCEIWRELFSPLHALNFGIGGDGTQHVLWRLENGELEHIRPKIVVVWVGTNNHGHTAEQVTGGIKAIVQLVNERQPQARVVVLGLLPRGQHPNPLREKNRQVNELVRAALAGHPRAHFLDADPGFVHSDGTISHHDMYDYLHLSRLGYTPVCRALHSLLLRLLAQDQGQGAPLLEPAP
UniProt A6NDB9: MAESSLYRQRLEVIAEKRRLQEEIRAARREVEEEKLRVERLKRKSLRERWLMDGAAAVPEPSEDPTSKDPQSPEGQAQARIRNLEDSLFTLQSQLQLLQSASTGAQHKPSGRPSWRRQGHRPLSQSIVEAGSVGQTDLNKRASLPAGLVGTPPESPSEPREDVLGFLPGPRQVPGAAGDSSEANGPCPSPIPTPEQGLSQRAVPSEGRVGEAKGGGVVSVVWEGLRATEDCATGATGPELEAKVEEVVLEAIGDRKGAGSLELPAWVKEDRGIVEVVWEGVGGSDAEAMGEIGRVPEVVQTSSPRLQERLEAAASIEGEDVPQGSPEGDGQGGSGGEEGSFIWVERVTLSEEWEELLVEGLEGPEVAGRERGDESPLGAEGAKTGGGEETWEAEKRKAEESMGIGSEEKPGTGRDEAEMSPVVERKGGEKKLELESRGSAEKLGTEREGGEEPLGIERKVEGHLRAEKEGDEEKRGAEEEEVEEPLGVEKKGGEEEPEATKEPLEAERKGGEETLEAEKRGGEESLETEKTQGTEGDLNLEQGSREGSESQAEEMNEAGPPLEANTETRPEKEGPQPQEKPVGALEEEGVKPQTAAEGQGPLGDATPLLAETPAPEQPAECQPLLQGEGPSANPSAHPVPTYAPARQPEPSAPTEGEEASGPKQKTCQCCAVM
UniProt Q8N6M0: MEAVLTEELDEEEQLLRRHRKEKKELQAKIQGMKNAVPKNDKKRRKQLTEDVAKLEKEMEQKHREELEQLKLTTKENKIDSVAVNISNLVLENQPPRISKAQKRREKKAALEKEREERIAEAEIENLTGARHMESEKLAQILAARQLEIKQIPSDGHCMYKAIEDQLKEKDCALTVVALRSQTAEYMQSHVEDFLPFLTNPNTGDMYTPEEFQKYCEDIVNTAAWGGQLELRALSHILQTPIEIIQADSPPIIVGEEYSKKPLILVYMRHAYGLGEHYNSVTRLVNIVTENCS
UniProt P51003: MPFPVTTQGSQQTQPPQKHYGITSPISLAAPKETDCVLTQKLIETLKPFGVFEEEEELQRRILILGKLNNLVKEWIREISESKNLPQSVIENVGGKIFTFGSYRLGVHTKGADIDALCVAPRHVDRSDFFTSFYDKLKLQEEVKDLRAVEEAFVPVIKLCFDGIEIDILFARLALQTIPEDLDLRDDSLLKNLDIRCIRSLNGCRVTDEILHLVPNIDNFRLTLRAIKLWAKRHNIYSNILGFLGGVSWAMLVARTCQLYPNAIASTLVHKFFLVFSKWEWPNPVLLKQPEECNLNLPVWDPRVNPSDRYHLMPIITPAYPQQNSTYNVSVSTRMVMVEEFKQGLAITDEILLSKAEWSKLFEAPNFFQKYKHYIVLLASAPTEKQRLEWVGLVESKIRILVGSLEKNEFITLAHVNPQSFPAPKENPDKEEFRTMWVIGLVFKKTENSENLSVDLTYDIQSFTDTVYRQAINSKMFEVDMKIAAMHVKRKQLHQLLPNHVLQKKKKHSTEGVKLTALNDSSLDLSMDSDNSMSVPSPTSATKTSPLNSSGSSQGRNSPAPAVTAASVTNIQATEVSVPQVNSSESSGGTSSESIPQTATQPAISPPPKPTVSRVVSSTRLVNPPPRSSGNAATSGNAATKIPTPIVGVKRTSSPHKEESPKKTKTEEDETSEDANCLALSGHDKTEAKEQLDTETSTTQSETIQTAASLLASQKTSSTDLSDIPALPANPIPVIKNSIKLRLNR
UniProt Q9NWT1: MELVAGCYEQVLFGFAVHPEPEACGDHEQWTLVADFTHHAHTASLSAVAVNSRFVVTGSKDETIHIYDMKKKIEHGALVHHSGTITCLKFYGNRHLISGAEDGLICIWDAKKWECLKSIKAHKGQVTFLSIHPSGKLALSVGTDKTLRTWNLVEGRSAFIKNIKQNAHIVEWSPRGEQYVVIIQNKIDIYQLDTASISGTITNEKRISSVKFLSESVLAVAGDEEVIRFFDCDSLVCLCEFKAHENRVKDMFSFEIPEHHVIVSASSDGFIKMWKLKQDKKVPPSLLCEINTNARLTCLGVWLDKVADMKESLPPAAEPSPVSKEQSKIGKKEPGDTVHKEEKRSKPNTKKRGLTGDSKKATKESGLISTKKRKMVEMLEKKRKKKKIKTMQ
UniProt Q9UNF0: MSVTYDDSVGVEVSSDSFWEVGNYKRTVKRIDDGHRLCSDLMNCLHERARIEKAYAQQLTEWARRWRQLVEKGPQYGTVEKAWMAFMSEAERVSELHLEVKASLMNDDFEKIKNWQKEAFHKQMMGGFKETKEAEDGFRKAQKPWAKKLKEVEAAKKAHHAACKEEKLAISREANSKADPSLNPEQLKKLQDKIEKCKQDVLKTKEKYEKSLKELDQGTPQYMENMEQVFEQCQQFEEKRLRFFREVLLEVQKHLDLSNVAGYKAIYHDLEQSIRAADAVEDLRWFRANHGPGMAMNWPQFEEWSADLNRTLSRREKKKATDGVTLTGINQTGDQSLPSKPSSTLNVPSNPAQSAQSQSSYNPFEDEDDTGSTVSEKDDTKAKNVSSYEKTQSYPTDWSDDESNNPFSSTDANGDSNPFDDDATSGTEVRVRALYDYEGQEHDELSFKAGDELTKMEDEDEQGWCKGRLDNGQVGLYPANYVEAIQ
UniProt Q9NRP0: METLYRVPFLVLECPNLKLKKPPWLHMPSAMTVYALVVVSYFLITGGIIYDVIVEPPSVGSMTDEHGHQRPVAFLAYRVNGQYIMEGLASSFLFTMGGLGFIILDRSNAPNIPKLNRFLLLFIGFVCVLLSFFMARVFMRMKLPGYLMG
UniProt Q8TEM1: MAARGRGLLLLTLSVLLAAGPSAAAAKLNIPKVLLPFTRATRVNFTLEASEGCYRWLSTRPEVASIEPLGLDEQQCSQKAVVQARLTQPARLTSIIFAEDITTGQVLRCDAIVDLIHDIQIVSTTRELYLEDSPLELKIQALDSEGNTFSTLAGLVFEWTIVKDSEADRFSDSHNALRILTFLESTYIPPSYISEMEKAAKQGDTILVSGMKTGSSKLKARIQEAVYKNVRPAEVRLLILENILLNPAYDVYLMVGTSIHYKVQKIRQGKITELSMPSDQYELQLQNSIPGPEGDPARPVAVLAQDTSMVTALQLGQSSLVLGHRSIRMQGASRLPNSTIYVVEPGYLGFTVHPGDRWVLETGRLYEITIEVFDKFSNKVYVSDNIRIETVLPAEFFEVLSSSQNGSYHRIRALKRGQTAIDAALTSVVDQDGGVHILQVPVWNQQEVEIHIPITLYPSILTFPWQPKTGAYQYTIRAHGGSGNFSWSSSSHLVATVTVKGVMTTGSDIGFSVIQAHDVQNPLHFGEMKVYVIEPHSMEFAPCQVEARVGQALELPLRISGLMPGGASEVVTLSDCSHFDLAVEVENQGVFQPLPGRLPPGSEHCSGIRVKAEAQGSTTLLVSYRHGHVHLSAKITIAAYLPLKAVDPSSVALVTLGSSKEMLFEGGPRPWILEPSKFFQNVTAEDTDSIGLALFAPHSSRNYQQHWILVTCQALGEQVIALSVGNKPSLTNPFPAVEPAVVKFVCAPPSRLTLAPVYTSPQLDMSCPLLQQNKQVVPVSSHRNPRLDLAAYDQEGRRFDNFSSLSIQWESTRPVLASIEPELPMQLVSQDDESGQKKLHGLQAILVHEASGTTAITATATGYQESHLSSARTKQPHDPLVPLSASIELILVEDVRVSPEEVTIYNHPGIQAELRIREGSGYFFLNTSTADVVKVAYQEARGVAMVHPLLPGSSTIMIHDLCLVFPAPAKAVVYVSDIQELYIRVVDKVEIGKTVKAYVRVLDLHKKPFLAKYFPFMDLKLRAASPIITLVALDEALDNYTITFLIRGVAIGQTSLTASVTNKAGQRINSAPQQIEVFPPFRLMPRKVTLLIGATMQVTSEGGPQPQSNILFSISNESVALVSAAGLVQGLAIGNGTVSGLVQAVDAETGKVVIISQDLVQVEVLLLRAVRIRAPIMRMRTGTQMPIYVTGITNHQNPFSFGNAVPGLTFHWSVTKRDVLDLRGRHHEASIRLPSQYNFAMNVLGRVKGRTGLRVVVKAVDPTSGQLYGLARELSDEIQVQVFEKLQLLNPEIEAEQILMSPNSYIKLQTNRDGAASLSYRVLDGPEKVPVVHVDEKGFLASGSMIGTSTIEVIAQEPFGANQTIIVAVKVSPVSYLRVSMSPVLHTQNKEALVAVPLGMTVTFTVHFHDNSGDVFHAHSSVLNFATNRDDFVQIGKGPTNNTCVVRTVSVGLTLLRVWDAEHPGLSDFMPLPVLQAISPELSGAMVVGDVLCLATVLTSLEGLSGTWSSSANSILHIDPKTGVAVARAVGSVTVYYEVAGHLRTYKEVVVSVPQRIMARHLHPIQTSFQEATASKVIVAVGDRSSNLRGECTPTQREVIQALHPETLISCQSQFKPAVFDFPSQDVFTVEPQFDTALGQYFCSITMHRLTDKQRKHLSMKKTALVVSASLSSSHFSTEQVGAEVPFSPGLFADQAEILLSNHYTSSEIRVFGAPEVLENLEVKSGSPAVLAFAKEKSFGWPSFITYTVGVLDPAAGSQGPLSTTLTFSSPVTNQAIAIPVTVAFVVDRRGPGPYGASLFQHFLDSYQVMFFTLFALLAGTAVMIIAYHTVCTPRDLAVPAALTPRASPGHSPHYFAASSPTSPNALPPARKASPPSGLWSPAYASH
UniProt Q9UBU9: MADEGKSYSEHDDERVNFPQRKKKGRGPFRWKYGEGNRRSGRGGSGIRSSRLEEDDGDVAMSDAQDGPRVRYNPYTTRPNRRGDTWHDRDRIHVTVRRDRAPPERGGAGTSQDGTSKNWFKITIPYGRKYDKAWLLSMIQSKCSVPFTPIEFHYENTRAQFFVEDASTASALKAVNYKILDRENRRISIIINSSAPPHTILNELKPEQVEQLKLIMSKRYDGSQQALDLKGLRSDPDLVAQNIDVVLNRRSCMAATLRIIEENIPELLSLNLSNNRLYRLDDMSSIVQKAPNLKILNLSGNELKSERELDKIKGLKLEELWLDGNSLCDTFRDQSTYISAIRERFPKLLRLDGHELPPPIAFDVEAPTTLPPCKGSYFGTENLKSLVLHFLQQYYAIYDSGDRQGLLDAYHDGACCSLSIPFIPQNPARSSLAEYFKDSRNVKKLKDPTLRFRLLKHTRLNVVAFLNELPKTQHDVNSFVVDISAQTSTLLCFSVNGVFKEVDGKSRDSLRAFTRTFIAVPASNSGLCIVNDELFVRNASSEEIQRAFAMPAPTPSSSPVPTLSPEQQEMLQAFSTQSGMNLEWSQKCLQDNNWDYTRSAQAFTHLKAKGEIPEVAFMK
UniProt O43252: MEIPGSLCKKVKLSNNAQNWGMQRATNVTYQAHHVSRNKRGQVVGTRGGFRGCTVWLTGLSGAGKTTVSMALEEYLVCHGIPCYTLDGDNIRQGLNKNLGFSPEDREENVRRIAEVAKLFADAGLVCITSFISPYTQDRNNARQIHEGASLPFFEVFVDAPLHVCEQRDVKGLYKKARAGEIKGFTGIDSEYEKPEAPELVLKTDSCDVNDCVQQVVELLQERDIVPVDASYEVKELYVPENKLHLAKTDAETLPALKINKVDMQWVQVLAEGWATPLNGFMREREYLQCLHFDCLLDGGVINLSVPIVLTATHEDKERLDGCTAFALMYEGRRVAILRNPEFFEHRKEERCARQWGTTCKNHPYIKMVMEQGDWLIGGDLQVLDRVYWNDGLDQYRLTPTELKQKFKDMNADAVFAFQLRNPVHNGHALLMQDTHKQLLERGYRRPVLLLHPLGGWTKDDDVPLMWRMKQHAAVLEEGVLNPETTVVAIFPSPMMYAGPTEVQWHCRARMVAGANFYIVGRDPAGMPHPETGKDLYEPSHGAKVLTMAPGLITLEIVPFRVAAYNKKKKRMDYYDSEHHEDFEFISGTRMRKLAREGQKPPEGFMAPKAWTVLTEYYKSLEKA

Compound: CC1=CC=C(C=C1)SC2=C3C=C(SC3=CN=C2)C(=O)N
Test: log2 fold change, soluble protein after heating vs DMSO (PISA); higher = thermal stabilisation; K562 lysate, 10 uM; active = over 0.2 and 3.5 SD of the protein, either way, in both replicates (recomputed)
In short: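 Dounce homogenisation of K562 pellets in PBS pH 7.4 with 1 mM MgCl2 produced a crude extract, used at 1 mg/mL protein. Exposure to 10 μM compound lasted 30 min, and aliquots were then heated for 3 min across 48°C-58°C, pooled and brought to 0.5% NP-40 at 4°C. The supernatant after 21,000xg for 90 min was quantified by TMTpro 16plex LC-MS/MS with channel sums equalised. Duplicate values are given as log-two fold change in thermal stability relative to solvent controls.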

Target	log2 fold change
OXSR1 (UniProt O95747)	inactive: -0.008
ORC5 (UniProt O43913)	inactive: -0.007
OSBPL8 (UniProt Q9BZF1)	inactive: -0.071
NUP188 (UniProt Q5SRE5)	inactive: -0.018
PAGR1 (UniProt Q9BTK6)	inactive: -0.113
OMA1 (UniProt Q96E52)	inactive: 0.024
OTC (UniProt P00480)	inactive: -0.004
PANK1 (UniProt Q8TE04)	inactive: 0.064
PAFAH1B3 (UniProt Q15102)	inactive: 0.006
PALM3 (UniProt A6NDB9)	inactive: -0.058
OVCA2 (UniProt Q8WZ82)	inactive: 0.005
PACS1 (UniProt Q6VY07)	inactive: 0.014
NUP205 (UniProt Q92621)	inactive: 0.008
OPA1 isoform 2 (UniProt O60313)	inactive: 0.02
OTUD6B (UniProt Q8N6M0)	inactive: 0.04
PAPOLA (UniProt P51003)	inactive: 0.017
OTUD5 isoform 5 (UniProt Q96G74)	inactive: -0.038

Reformatted: entries from further up
Target | log2 fold change
PANK1 (UniProt Q8TE04) | inactive: 0.064
PAFAH1B3 (UniProt Q15102) | inactive: 0.006
PALM3 (UniProt A6NDB9) | inactive: -0.058
OVCA2 (UniProt Q8WZ82) | inactive: 0.005
PACS1 (UniProt Q6VY07) | inactive: 0.014
NUP205 (UniProt Q92621) | inactive: 0.008
OPA1 isoform 2 (UniProt O60313) | inactive: 0.02
OTUD6B (UniProt Q8N6M0) | inactive: 0.04
PAPOLA (UniProt P51003) | inactive: 0.017

(list continues)

Target	log2 fold change
NUP50 (UniProt Q9UKX7)	inactive: -0.011
OGFOD2 (UniProt Q6N063)	inactive: -0.023
PAK1IP1 (UniProt Q9NWT1)	inactive: -0.006
PACSIN2 (UniProt Q9UNF0)	inactive: 0.003
OSTC (UniProt Q9NRP0)	inactive: -0.06
ORC4 (UniProt O43929)	inactive: 0.032
PAF1 (UniProt Q8N7H5)	inactive: 0.005
OGFOD3 (UniProt Q6PK18)	inactive: -0.068
OSTC isoform 2 (UniProt Q9NRP0)	inactive: 0.02
OSBPL2 (UniProt Q9H1P3)	inactive: 0.012
NUP210 (UniProt Q8TEM1)	inactive: -0.012
NUP85 (UniProt Q9BW27)	inactive: -0.005
NXF1 (UniProt Q9UBU9)	inactive: 0.036
ORC3 isoform 2 (UniProt Q9UBD5)	inactive: -0.012
PAPSS1 (UniProt O43252)	inactive: -0.007
PALMD (UniProt Q9NP74)	inactive: -0.024
